# According to PubChem BioAssay (NCATS):
# This is one part of the list. Further columns of the screen follow, without active or inactive calls. Most of these compounds were active or inconclusive in the main read-out, so they are no random draw. Words in brackets tell the shape of the fitted curve; partial curves, single points and poor fits give uncertain potencies.
# Experiment: S16 Schwann cell PMP22 intronic element beta-lactamase assay (AID 624044)
# Conditions: S16 rat Schwann cells, PMP22 element beta-lactamase FRET, 24 h; measured here: 460 nm blue channel
# How it was run: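 Rat S16 Schwann cells with beta-Lac driven by a PMP22 intronic element, compound-treated 24 h at 37 °C. LiveBLAzer FRET B/G read: 460 nm normalized to potassium clavulanate vs DMSO; 535 nm FRET as viability; concentration-effect curves classified.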
row,Structure (SMILES),AC50
1,CNc1ccc(C(=O)CC(O)CCC(C)C2OC(=O)CC(O)CC(=O)CC(O)CC(O)CC(O)CC(O)CC3(O)CC(O)C(C(=O)OC)C(CC(O[C@@H]4OC(C)C(O)C(N)C4O)/C=C/C=C/C=C/C=C/C=C/C=C/C=C/C2C)O3)cc1 (stereo partly drawn),"25.1 µM [rising, single point]"
2,CCOc1ccc2c3c1O[C@H]1[C@@H](O)C=C[C@H]4[C@@H](C2)N(C)CC[C@@]341,"2.24 µM [falling, partial curve, poor fit]"
3,C[C@]12Cc3nonc3C[C@@H]1CC[C@@H]1[C@@H]2CC[C@@]2(C)[C@H]1CC[C@]2(C)O,"1.26 µM [falling, full curve, poor fit]"
4,Nc1nc(N)nc(NC2CC2)n1,"8.91 µM [falling, single point]"
5,CCCCCc1cc(O)c2c(c1)OC(C)(C)C1CC=C(C)CC21 (stereo not drawn),"12.6 µM [rising, partial curve]"
6,CO[C@@H](COC(N)=O)C1=C(N2CC2)C(=O)C(C)=C(N2CC2)C1=O,"2.82 µM [falling, full curve]"
7,S=C(S)N1CCNCC1,"8.91 µM [falling, full curve]"
8,CCNc1nc(Cl)nc(NCC)n1,"3.98 µM [falling, full curve, poor fit]"
9,CNC(=O)NC(O)C(Cl)(Cl)Cl (stereo not drawn),"12.6 µM [falling, single point]"
10,CC(=O)OO,"2.24 µM [falling, full curve, poor fit]"
11,CC1(C)S[C@@H]2[C@H](N)C(=O)N2C1C(=O)O (stereo partly drawn),"2.13 µM [falling, full curve, poor fit]"
12,CC(C)n1c(/C=C/[C@H](O)C[C@H](O)CC(=O)O)c(-c2ccc(F)cc2)c2ccccc21,"12.6 µM [falling, partial curve]"
13,CCCCCCCCCc1ccc(OCCOCCOCCOCCOCCOCCOCCOCCOCCO)cc1,"22.4 µM [falling, partial curve, poor fit]"
14,NC(N)=NN=C(/C=C/c1ccc([N+](=O)[O-])o1)/C=C/c1ccc([N+](=O)[O-])o1,"12.6 µM [falling, full curve]"
15,O=[N+]([O-])c1ccc([As](=O)(O)O)cc1,"2.24 µM [falling, full curve, poor fit]"

# Same assay, conditions: S16 rat Schwann cells, PMP22 element beta-lactamase FRET, 24 h; measured here: 530 nm viability channel
row,Structure (SMILES),AC50
1,Oc1cc[c]([Hg][Cl])cc1,"2.82 µM [rising, full curve]"
2,CCCCCC(O)C1C(=O)OC(C)C(O)\C=C/C=C\C=C/C=C\C=C(\C)C(O)C(O)C(O)CC(O)CC(O)CC(O)CC(O)CC1O (stereo not drawn),"2 µM [falling, full curve, poor fit]"
3,CC1(Cn2ccnn2)[C@H](C(=O)O)N2C(=O)C[C@H]2S1(=O)=O (stereo partly drawn),"14.1 µM [rising, partial curve]"
4,NC(=O)CS(=O)C(c1ccccc1)c1ccccc1 (stereo not drawn),"31.6 µM [falling, single point]"
5,O=c1ccc2cc(O[C@H]3O[C@@H](CO)[C@@H](O)[C@@H](O)[C@@H]3O)c(O)cc2o1,"5.01 µM [rising, full curve]"
6,Oc1cccc[c]1[Hg][Cl],"3.98 µM [rising, full curve]"
7,CCC1(c2ccccc2)C(=O)NC(=O)N(C)C1=O (stereo not drawn),"31.6 µM [rising, single point]"
8,COC(C(=O)C(O)C(C)O)C1Cc2cc3cc(OC4CC(OC5CC(O)C(OC)C(C)O5)C(OC(C)=O)C(C)O4)c(C)c(O)c3c(O)c2C(=O)C1OC1CC(OC2CC(OC3CC(C)(O)C(OC(C)=O)C(C)O3)C(O)C(C)O2)C(O)C(C)O1 (stereo not drawn),"17.8 µM [rising, partial curve]"
9,CCN(CC)C(=O)/C(Cl)=C(\C)OP(=O)(OC)OC,"0.316 µM [falling, partial curve]"
10,C=CCN1CC[C@]23c4c5ccc(O)c4O[C@H]2[C@@H](O)C=C[C@H]3[C@H]1C5,"2 µM [falling, partial curve]"
11,COC([CH2][Hg])CNC(=O)c1ccccc1OCC(=O)O (stereo not drawn),"3.55 µM [rising, partial curve]"
12,CNc1ccc(C(=O)CC(O)CCC(C)C2OC(=O)CC(O)CC(=O)CC(O)CC(O)CC(O)CC(O)CC3(O)CC(O)C(C(=O)OC)C(CC(O[C@@H]4OC(C)C(O)C(N)C4O)/C=C/C=C/C=C/C=C/C=C/C=C/C=C/C2C)O3)cc1 (stereo partly drawn),"28.2 µM [rising, single point]"
13,CCOc1ccc2c3c1O[C@H]1[C@@H](O)C=C[C@H]4[C@@H](C2)N(C)CC[C@@]341,"3.98 µM [falling, partial curve]"
14,C[C@]12Cc3nonc3C[C@@H]1CC[C@@H]1[C@@H]2CC[C@@]2(C)[C@H]1CC[C@]2(C)O,"1.41 µM [falling, full curve]"
15,CNC(=O)Oc1ccc2c(c1)[C@]1(C)CCN(C)[C@@H]1N2C,"31.6 µM [falling, single point]"
16,CO[C@@H](COC(N)=O)C1=C(N2CC2)C(=O)C(C)=C(N2CC2)C1=O,"0.355 µM [rising, full curve]"
17,S=C(S)N1CCNCC1,"1.58 µM [falling, full curve]"
18,CNC(=O)NC(O)C(Cl)(Cl)Cl (stereo not drawn),"12.6 µM [falling, single point]"
